Reference: patent publication US9670482B2 (BICYCLE THERAPEUTICS LIMITED, priority 2009, dated 2017)
*: point of attachment. Fmoc = O=C(OCC1c2ccccc2-c2ccccc21)*

Assay: general procedure: Fmoc solid-phase peptide synthesis; Fmoc-Gly-PEG PS resin; PAL-PEG-PS; PyBop, DIPEA
Conditions: whole synthesis, scale of the general procedure 0.1 mmol

Substance: Fmoc-WGGGACVRFGWTCSDRFRNCG-NH2 (cysteine pairing not given here)
- final HPLC purity: >90%
